Paper PMC4482583, “The Dimerization State of the Mammalian High Mobility Group Protein AT-Hook 2 (HMGA2)” (PLoS ONE, 2015)
No constants are given. Whether binding was seen depends on the method and setting. Some entries that bind do so weakly or less than the wild type.

What was measured:
[1] = target: mammalian high mobility group protein AT-hook 2 (HMGA2) (mouse) (UniProt P52927); assay: cross-linking; disuccinimidyl suberate (DSS) and dimethyl suberimidate (DMS) as cross-linking reagents; data not shown; both purified
[2] = target: T1, HMGA2Δ95–108 (mouse, UniProt P52927 1-94); assay: cross-linking; EDC (2 mM, zero-length) in MES buffer (10 mM MES, pH 5.5, 50 mM NaCl), 2 hours at 24°C; 29-116 μM protein; 15% SDS-PAGE, Coomassie; both purified
T1 construct: also called mutant that lacks the negatively charged C-terminus; source: made by PCR-based site directed mutagenesis, purified as described previously [26]
T1 sequence (looked up): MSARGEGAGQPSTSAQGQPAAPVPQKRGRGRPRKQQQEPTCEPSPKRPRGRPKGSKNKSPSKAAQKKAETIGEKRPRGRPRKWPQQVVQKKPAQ

| Binder | binding [1] | binding [2] |
| --- | --- | --- |
| mammalian high mobility group protein AT-hook 2 (HMGA2) (natural protein, mouse, UniProt P52927 1-108, looked up, also called mouse HMGA2; recombinant HMGA2; source: recombinant, purified as described previously [26]) MSARGEGAGQPSTSAQGQPAAPVPQKRGRGRPRKQQQEPTCEPSPKRPRGRPKGSKNKSPSKAAQKKAETIGEKRPRGRPRKWPQQVVQKKPAQETEETSSQESAEED | binds |  |
| HMGA2Δ95–108 (domain or fragment, UniProt P52927 1-94) MSARGEGAGQPSTSAQGQPAAPVPQKRGRGRPRKQQQEPTCEPSPKRPRGRPKGSKNKSPSKAAQKKAETIGEKRPRGRPRKWPQQVVQKKPAQ |  | no binding (tested: 40 μM) |
